{"source": "PubChem BioAssay AID1259425 – University of Nebraska Medical Center, 2018", "purpose": "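Compare each knockdown with KSR1 silencing using changes in marker transcripts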 (primary screen)", "cell system": "HCT116 human colon cancer cells", "reagent": "siRNA pool against human genes, 50 nM siRNA", "measured": "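After 50 nM siRNA pool, branched-DNA assay measures six marker transcripts per well, minus blank, normalised to the geometric mean of two housekeeping transcripts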", "reading the numbers": "BNIP3L mRNA: higher = more BNIP3L transcript after knockdown; NDRG1 mRNA: higher = more NDRG1 transcript after knockdown", "note": "In all, the deposit lists about 14,000 reagents; shown is a random part of them. Not all columns of the deposit are shown. Not stated in the record: the time to read-out."}
The opening 2 entries as a preview:
{"gene": "PNLIPRP2 (pancreatic lipase related protein 2 (gene/pseudogene))", "BNIP3L mRNA, set 1": 0.317, "NDRG1 mRNA, set 1": 0.161}
{"gene": "RBM17 (RNA binding motif protein 17)", "BNIP3L mRNA, set 1": 0.0633, "NDRG1 mRNA, set 1": 0.602}

The list itself, from the first entry:
{"gene": "PNLIPRP2 (pancreatic lipase related protein 2 (gene/pseudogene))", "BNIP3L mRNA, set 1": 0.317, "NDRG1 mRNA, set 1": 0.161}
{"gene": "RBM17 (RNA binding motif protein 17)", "BNIP3L mRNA, set 1": 0.0633, "NDRG1 mRNA, set 1": 0.602}
{"gene": "MAB21L2 (mab-21 like 2)", "BNIP3L mRNA, set 1": 0.0949, "NDRG1 mRNA, set 1": 0.172}
{"gene": "PKNOX1 (PBX/knotted 1 homeobox 1)", "BNIP3L mRNA, set 1": 0.042, "NDRG1 mRNA, set 1": 0.0465}
{"gene": "SDHA (succinate dehydrogenase complex flavoprotein subunit A)", "BNIP3L mRNA, set 1": 0.108, "NDRG1 mRNA, set 1": 0.103}
{"gene": "SLC4A1", "BNIP3L mRNA, set 1": 0.0756, "NDRG1 mRNA, set 1": 0.0775}
{"gene": "CNTF (ciliary neurotrophic factor)", "BNIP3L mRNA, set 1": 0.131, "NDRG1 mRNA, set 1": 0.351}
{"gene": "LINC00339 (long independently transcribed non-coding RNA 339)", "BNIP3L mRNA, set 1": 0.112, "NDRG1 mRNA, set 1": 0.127}
{"gene": "MIEN1 (migration and invasion enhancer 1)", "BNIP3L mRNA, set 1": 0.272, "NDRG1 mRNA, set 1": 0.346}
{"gene": "PTGIR (prostaglandin I2 receptor)", "BNIP3L mRNA, set 1": 0.209, "NDRG1 mRNA, set 1": 0.341}
{"gene": "IFNA17 (interferon alpha 17)", "BNIP3L mRNA, set 1": 0.0743, "NDRG1 mRNA, set 1": 0.239}
{"gene": "SMURF1 (SMAD specific E3 ubiquitin protein ligase 1)", "BNIP3L mRNA, set 1": 0.0725, "NDRG1 mRNA, set 1": 0.0788}
{"gene": "MMP26 (matrix metallopeptidase 26)", "BNIP3L mRNA, set 1": 0.115, "NDRG1 mRNA, set 1": 0.0853}
{"gene": "TRIM31 (tripartite motif containing 31)", "BNIP3L mRNA, set 1": 0.273, "NDRG1 mRNA, set 1": 0.696}
{"gene": "GCG (glucagon)", "BNIP3L mRNA, set 1": 0.282, "NDRG1 mRNA, set 1": 0.21}
{"gene": "EPN3 (epsin 3)", "BNIP3L mRNA, set 1": 0.0995, "NDRG1 mRNA, set 1": 0.239}
{"gene": "CRTAC1 (cartilage acidic protein 1)", "BNIP3L mRNA, set 1": 0.127, "NDRG1 mRNA, set 1": 0.214}
{"gene": "GOLGA8A (golgin A8 family member A)", "BNIP3L mRNA, set 1": 0.478, "NDRG1 mRNA, set 1": 0.55}
{"gene": "TSPAN17 (tetraspanin 17)", "BNIP3L mRNA, set 1": 0.117, "NDRG1 mRNA, set 1": 0.148}
